## Results of single-concentration screens

The chains behind the UniProt entries cited, without tags or fusion partners.
UniProt I6X8D2, whole entry: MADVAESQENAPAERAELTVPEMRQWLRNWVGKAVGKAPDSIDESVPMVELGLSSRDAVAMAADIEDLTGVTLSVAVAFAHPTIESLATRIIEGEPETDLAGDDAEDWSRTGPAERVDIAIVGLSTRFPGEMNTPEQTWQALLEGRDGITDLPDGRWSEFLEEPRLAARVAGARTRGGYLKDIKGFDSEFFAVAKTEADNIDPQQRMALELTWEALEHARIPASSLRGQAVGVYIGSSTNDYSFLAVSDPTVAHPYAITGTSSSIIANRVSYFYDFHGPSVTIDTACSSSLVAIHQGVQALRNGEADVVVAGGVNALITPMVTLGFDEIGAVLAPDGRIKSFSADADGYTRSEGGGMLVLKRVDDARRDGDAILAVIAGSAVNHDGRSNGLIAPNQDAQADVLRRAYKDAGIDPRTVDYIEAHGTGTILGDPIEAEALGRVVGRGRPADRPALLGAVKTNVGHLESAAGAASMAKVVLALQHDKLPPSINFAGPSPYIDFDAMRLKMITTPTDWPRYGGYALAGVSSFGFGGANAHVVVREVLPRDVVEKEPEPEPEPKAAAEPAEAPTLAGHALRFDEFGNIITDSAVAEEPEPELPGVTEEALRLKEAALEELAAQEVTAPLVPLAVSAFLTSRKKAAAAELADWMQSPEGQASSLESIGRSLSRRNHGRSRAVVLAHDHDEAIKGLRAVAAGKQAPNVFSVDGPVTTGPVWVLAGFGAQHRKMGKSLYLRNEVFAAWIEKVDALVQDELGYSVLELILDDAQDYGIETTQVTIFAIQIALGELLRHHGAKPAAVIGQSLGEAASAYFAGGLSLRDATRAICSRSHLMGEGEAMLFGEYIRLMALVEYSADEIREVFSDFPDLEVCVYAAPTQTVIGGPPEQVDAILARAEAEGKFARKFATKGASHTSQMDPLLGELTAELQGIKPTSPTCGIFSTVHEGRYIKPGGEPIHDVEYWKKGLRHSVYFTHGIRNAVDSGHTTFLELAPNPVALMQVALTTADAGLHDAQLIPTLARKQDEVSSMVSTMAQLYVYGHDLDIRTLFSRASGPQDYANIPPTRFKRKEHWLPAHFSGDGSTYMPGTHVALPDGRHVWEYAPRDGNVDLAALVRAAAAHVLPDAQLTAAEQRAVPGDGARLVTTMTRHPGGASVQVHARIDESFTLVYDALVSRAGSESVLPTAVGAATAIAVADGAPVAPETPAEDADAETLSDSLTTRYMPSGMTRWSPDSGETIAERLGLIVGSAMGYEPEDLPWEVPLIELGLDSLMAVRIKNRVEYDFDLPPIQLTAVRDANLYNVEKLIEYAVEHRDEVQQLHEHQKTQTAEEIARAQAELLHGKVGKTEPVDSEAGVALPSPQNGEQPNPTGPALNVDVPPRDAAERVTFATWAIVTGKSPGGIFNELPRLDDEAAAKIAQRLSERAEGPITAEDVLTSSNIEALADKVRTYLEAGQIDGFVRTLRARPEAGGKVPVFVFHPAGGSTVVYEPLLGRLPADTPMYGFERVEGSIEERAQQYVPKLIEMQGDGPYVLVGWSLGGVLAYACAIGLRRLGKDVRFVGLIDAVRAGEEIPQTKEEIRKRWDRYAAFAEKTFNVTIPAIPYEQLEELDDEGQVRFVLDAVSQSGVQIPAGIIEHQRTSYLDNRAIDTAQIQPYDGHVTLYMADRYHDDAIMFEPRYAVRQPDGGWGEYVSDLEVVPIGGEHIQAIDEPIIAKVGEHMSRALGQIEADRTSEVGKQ

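Polyketide synthase Pks13, Mycobacterium tuberculosis (UniProt I6X8D2). Enzyme assay of the thioesterase domain of polyketide synthase 13; the read-out is not stated. Tested at 30 µM. The record gives no direction; the compounds picked for IC50 retests had high values, so higher reads as stronger inhibition. About 67,000 compounds were tested under these conditions; 0.46% (about 300) showed 50% or more at least once.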

Each number is a percent effect as filed.
The controls that fix the scale are not given in the record; negative values are as filed.
This is an unselected part of the compounds tested.

With CCOC1CCN(C(=O)NCc2ccc(CN3CCOCC3)cc2)CC1 the screen gave -3.478%.
With CC(=O)Nc1nc(C(=O)N2CCCC2c2ccccc2C)cs1 (stereo not given) the screen gave 8.109%.
With Cc1ncc(C(=O)OCC2CCN(c3ccccc3)C2)s1 (stereo not given) the screen gave 39.18%.
With CCOC(C)c1noc(CN2CCN(c3nnc(C)s3)CC2)n1 (stereo not given) the screen gave -8.677%.
With CCOCC(O)CN1CCN(C(=O)Cc2ccccc2C)CC1 (stereo not given) the screen gave -1.594%.
With CCCN1CCCn2nc(CNS(=O)(=O)c3cccc(C#N)c3)cc2C1 the screen gave 2.761%.
With Cc1cnn(CC2CN(Cc3csc(C(C)C)n3)CCO2)c1 (stereo not given) the screen gave -20.49%.
With O=C1CN(CCCNS(=O)(=O)c2cccc(C(=O)NC3CC3)c2)CCN1 the screen gave -23.26%.
With CN(c1ncnc2ccccc12)C1CCCN(c2cccnn2)C1 (stereo not given) the screen gave -5.759%.
With COCCN1CCC(c2nc3cc(C)ccc3[nH]2)CC1 the screen gave -8.236%.
With CC(C)NC(=O)C1(Cc2ccccc2-c2ccccc2)CCCNC1 (stereo not given) the screen gave -6.418%.
With CCn1nc(C)c(C(=O)Nc2ccc3c(c2)C(C)(C)C(=O)N3C)c1C the screen gave -0.3408%.
With CCCc1nnsc1C(=O)NCC1CCN(S(C)(=O)=O)CC1 the screen gave -16.42%.
With c1cc2c(cc1CN(Cc1nc(C3CC3)no1)C1CCCC1)OCO2 the screen gave 19.88%.
With Cc1csc(NC(=O)CN(C)CC2CCCN2c2cccnn2)n1 (stereo not given) the screen gave -12.51%.
With CC(=O)N1[C@H](CN(C)C)C[C@@H]2CN(C(=O)c3cccc(F)c3)CC[C@@H]21 the screen gave -7.051%.
With Cc1oncc1C(=O)N1CCC2(CCN(Cc3ccccn3)C2=O)C1 (stereo not given) the screen gave -3.968%.
With Cc1nc(CN2CCCC3(CCN(c4cnn(C)c4)C3=O)C2)cs1 (stereo not given) the screen gave -22.92%.
With Cc1cc(C(=O)N2CCC(n3nc(C)cc3C)C2)c2ccc(F)cc2n1 (stereo not given) the screen gave 6.2%.
With O=C(NCCCNC(=O)C1CCC1)NCCn1cccc1 the screen gave -13.16%.
With O=C(Nc1cc(-c2ccncc2)no1)C1CC1 the screen gave -24.02%.
With CCc1nc(C2CCCN(c3nccc(C)n3)C2)no1 (stereo not given) the screen gave -13.24%.
With CC(C)N1CCC2(CCCN(c3nccc(C(F)(F)F)n3)C2)CC1 the screen gave -25.68%.
With Cc1nn(C)c(C)c1OCC(=O)N1CCCCC1 the screen gave -34.27%.
With Cc1nc2ccc(C(=O)N3C[C@@H](O)[C@H](N4CCN(C)CC4)C3)cc2[nH]1 the screen gave -36.85%.
With CCN1CC[C@@]2(C(=O)N(C)C)CCN(S(=O)(=O)c3ccccc3)CC[C@@H]12 the screen gave -12.1%.
With CN1CCN(Cc2ccc(-c3ccc(-c4ccn[nH]4)cc3)nc2)CC1 the screen gave -4.898%.
With CNc1nc(N2CCN(C)C(CCO)C2)nc2c1CCC2 (stereo not given) the screen gave -6.406%.
With Cc1nc2n(n1)CC(NCCC(=O)Nc1cc(C)on1)CC2 (stereo not given) the screen gave -12.19%.
With CN(C)C(=O)c1ccc(CNC(=O)NCCN(C)C2CCCC2)cc1 the screen gave -6.331%.
With Cc1cc(NC(=O)CCn2nc(C)c3ccccc32)n(C(C)C)n1 the screen gave -25.61%.
With O=C(CCn1ccc2ccccc21)N1CCN(Cc2cccnc2)CC1 the screen gave -16.01%.
With CC(=O)NC1CCCN(C(=O)NCc2cccnc2-n2cccn2)C1 (stereo not given) the screen gave -4.501%.
With CCn1cc(CN(C)C(=O)c2cccc(CCC(C)(C)O)c2)cn1 the screen gave -7.998%.
With CC(C)COCCC(=O)NCCC(=O)N1CCN(c2ccccn2)CC1 the screen gave -5.938%.
With CCOc1ccccc1OC1CCN(C(=O)c2cc[nH]n2)CC1 the screen gave -10.93%.
With Cc1ccc(Oc2cc(CN)ccn2)cc1C the screen gave -7.359%.
With N#Cc1cn(CCCN2CCc3ccccc32)c(=O)[nH]c1=O the screen gave 8.208%.

Once more, the final 3:

- CCOc1ccccc1OC1CCN(C(=O)c2cc[nH]n2)CC1 : -10.93%
- Cc1ccc(Oc2cc(CN)ccn2)cc1C : -7.359%
- N#Cc1cn(CCCN2CCc3ccccc32)c(=O)[nH]c1=O : 8.208%

The values are deposited in ChEMBL (CHEMBL3988442, “University of Dundee, Small-Polar-MMV Screening Library” (2021)).